Drawing on article doi:10.1101/2020.10.21.349357, this text covers binding for 1 substance.

Amino acid sequences for entries named in this document (tags omitted). A change or cut given only in a name is not applied to a line headed by its entry.
UniProt Q9Y6K9, whole entry, stated change not applied: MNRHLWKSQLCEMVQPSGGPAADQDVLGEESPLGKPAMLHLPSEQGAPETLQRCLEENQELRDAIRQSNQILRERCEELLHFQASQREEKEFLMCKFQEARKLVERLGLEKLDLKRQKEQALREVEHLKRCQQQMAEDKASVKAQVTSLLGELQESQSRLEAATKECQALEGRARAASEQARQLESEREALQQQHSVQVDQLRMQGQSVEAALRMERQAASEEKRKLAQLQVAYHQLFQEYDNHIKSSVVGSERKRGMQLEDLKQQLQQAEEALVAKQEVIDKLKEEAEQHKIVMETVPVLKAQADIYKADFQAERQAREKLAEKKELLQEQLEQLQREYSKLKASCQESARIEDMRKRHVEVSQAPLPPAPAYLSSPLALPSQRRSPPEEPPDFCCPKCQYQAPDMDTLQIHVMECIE

These are yes or no findings as the source states them, for the method shown. Binding seen in cells or lysates may run through a third protein. Binding calls can cover weak binding; strength is not graded here.

The assay addresses Flag-tagged NEMO (UniProt Q9Y6K9). Kind of assay: co-IP.

With “HA-N4BP1 with NYN domain deletion (from UniProt O75113)”, the binding entry was “binds”.
